According to PMC6398486:
These are yes or no findings as the source states them, for the method shown. In cells and extracts the contact can be indirect. A yes stands for co-enrichment or nearness to the bait. Other partners may have been found.

Sequences of proteins named here, by UniProt entry; tags and fusion partners are left off. Residues count along the entry.
UniProt Q55FG3, residues 2725-3848: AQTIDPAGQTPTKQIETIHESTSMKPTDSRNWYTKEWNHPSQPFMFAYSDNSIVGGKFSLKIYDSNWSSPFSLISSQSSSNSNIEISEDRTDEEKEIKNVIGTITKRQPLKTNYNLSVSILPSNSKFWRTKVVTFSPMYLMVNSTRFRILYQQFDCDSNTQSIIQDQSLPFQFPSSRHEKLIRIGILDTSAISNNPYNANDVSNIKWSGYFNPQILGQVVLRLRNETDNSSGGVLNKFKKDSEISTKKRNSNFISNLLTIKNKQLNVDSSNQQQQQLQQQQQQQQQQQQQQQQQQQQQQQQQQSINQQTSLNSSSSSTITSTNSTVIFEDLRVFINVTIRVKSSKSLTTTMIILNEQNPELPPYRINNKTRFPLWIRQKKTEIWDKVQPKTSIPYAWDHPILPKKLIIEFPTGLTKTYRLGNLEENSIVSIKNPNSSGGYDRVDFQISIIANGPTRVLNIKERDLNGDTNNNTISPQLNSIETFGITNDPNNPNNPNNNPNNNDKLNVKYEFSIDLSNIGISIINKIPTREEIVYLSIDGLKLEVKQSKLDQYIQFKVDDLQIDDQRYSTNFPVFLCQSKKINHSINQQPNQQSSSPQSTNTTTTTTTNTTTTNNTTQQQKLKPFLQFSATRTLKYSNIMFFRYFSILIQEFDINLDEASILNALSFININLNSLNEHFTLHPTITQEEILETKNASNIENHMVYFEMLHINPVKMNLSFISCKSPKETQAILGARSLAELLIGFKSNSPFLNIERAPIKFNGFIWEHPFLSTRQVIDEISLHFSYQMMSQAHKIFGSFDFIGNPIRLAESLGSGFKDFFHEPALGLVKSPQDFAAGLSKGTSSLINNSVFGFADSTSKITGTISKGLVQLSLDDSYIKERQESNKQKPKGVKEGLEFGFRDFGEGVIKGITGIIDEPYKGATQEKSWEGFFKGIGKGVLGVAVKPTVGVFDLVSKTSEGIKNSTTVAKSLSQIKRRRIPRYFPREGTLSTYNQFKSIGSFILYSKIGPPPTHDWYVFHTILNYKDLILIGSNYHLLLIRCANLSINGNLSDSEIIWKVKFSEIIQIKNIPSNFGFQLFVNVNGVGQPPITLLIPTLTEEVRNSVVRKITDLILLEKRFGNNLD
UniProt P36411: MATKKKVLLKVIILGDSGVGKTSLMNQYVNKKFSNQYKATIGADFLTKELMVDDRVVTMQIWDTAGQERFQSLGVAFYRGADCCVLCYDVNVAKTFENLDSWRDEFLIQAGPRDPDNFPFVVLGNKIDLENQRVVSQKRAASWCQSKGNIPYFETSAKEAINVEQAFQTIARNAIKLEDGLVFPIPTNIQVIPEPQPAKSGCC

Target: C-terminal region of TipC (amino acids 2725-3848) fused to GFP (D. discoideum) (UniProt Q55FG3)
Experiment: affinity purification with mass spectrometry; GFP-Trap A beads on lysates of D. discoideum tipC- cells expressing TipC^2725-3848-GFP or GFP alone; 10 mM Tris-HCl pH 7.5, 150 mM NaCl, 4 h at 4°C; nano LC-MS/MS

binding: binds
Substance: Ras-like in rat brain 7A (Rab7A) (from UniProt P36411 1-203)
